Data as given in paper PMC4738335, “MatP regulates the coordinated action of topoisomerase IV and MukBEF in chromosome segregation” (Nature Communications, 2016).
Results are given in words; binding and its absence hold for the method and conditions named. Some results given as binding are weak or reduced against the parent protein; the word gives no strength. Tags and fused reporters may be left off the sequences shown.

T1: MatPΔC18, two-hybrid fusion (E. coli) (UniProt P0A8N0)
T1 sequence: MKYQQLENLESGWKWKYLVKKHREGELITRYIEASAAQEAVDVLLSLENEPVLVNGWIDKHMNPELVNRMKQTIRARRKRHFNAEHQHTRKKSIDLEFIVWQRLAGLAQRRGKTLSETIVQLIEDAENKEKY

T2: MatP, two-hybrid fusion (E. coli) (UniProt P0A8N0)
T2 sequence: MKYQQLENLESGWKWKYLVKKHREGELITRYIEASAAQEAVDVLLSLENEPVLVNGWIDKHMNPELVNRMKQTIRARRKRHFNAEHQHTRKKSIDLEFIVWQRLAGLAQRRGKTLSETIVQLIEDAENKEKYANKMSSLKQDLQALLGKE

T3: MukB Hinge (MukB dimerization hinge with 172 amino acids of associated coiled-coil), two-hybrid fusion (E. coli) (UniProt P22523)
T3 sequence: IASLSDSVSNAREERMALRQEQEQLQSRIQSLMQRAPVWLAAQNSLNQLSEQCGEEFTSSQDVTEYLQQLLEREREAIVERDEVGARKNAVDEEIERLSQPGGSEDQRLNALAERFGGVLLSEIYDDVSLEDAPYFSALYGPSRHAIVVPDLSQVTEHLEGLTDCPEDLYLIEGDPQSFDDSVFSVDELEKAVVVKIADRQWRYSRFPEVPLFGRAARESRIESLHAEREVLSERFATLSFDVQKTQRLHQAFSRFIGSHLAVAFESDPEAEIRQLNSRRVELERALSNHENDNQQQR


Key:
Experiment in all cases: two-hybrid; bacterial two-hybrid by adenylate cyclase T18/T25 reconstitution; proteins fused to the N terminus of T25 (pKNT25) and the C terminus of T18 (pUT18C); blue colour on X-gal plates, 30 °C then room temperature
[1] = molecular target: T1, MatPΔC18, two-hybrid fusion (E. coli)
[2] = molecular target: T2, MatP, two-hybrid fusion (E. coli)
[3] = molecular target: T3, MukB Hinge (MukB dimerization hinge with 172 amino acids of associated coiled-coil), two-hybrid fusion (E. coli)
[4] = molecular target: MatPΔC20, two-hybrid fusion (E. coli) (UniProt P0A8N0)

| Binder | binding [1] | binding [2] | binding [3] | binding [4] |
| --- | --- | --- | --- | --- |
| MatP, two-hybrid fusion (protein, UniProt P0A8N0 1-150) MKYQQLENLESGWKWKYLVKKHREGELITRYIEASAAQEAVDVLLSLENEPVLVNGWIDKHMNPELVNRMKQTIRARRKRHFNAEHQHTRKKSIDLEFIVWQRLAGLAQRRGKTLSETIVQLIEDAENKEKYANKMSSLKQDLQALLGKE | – | binds | binds weakly | – |
| MatPΔC18, two-hybrid fusion (domain or fragment, UniProt P0A8N0 1-132) MKYQQLENLESGWKWKYLVKKHREGELITRYIEASAAQEAVDVLLSLENEPVLVNGWIDKHMNPELVNRMKQTIRARRKRHFNAEHQHTRKKSIDLEFIVWQRLAGLAQRRGKTLSETIVQLIEDAENKEKY | binds | binds | binds weakly | – |

Results, then the binder that gave them:

| binding [1] | binding [2] | binding [3] | binding [4] | Binder |
| --- | --- | --- | --- | --- |
| binds | binds | binds weakly | binds | MatPΔC20, two-hybrid fusion (domain or fragment, UniProt P0A8N0 1-130) MKYQQLENLESGWKWKYLVKKHREGELITRYIEASAAQEAVDVLLSLENEPVLVNGWIDKHMNPELVNRMKQTIRARRKRHFNAEHQHTRKKSIDLEFIVWQRLAGLAQRRGKTLSETIVQLIEDAENKE |
| – | – | binds | – | MukB Hinge (MukB dimerization hinge with 172 amino acids of associated coiled-coil), two-hybrid fusion (domain or fragment, UniProt P22523 566-863) IASLSDSVSNAREERMALRQEQEQLQSRIQSLMQRAPVWLAAQNSLNQLSEQCGEEFTSSQDVTEYLQQLLEREREAIVERDEVGARKNAVDEEIERLSQPGGSEDQRLNALAERFGGVLLSEIYDDVSLEDAPYFSALYGPSRHAIVVPDLSQVTEHLEGLTDCPEDLYLIEGDPQSFDDSVFSVDELEKAVVVKIADRQWRYSRFPEVPLFGRAARESRIESLHAEREVLSERFATLSFDVQKTQRLHQAFSRFIGSHLAVAFESDPEAEIRQLNSRRVELERALSNHENDNQQQR |
